Measured values reported in publication doi:10.1101/2020.01.11.902726.
Results are given in words; binding and its absence hold for the method and conditions named. In cells and extracts the contact can be indirect. Some entries that bind do so weakly or less than the wild type. Sequences can lack the tags named with a protein.

The chains behind the UniProt entries cited, without tags or fusion partners.
UniProt P32121: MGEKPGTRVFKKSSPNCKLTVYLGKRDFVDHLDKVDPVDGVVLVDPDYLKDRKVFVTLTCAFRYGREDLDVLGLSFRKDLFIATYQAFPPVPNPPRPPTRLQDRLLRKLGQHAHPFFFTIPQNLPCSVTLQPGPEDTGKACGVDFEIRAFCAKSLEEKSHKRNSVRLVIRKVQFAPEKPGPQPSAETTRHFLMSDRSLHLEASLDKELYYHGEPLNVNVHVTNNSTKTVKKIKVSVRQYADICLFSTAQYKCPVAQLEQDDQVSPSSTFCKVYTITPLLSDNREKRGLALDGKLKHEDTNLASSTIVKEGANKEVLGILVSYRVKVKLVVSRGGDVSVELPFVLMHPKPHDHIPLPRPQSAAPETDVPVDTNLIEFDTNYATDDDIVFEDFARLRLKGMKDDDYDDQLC

Molecular target: T1, wild type human FFA2 tagged with eYFP at its C terminus (human) (UniProt O15552)
T1 sequence: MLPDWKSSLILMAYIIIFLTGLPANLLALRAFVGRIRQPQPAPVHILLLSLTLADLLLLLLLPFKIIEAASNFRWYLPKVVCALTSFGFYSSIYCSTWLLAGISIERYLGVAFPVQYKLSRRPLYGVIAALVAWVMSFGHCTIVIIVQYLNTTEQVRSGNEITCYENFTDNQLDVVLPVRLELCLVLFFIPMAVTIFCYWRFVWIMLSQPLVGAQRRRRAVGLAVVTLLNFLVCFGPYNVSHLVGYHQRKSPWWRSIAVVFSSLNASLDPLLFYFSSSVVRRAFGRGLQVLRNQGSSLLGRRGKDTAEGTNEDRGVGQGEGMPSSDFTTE
Experiment: FRET or BRET

binding: binds
Substance: β-arrestin-2-Renilla-luciferase (from UniProt P32121 1-409)
